{"source": "paper PMC10163288", "binders": {"B1": {"name": "il10ra_site1_normal_mot_HHH_b1_05056_000000217_0001_1_20_H_._HHH_b2_01332_0001_0000100012_0000001_0 (protein)", "chain": "SSSSSDEEEVEQEVEELLEEAKRIPDQRERARVLQEATRIALQGQNPEALQLVWEVVRRLSSSSS"}, "B2": {"name": "il10ra_site1_normal_mot_0750aae41c39e4229e2ea8fa354cc919_0001_1_000000144_0001_37_51_H_._ems_3hC_921_0001_0001_0000300023_0000001_0 (protein)", "chain": "SSPEEARKLLEEAHELAEEQNDEHALRAVEFWERLDEEAEKANNENVVRSVERAARRLLELLRES"}, "B3": {"name": "il10ra_site1_normal_mot_HHH_b2_01310_000000089_0001_41_55_H_._HHH_b1_08628_af2_0001_0000100011_0000001_0_af2pred_0001 (protein)", "chain": "SSSDEEERAEELYEEAHKLIEEGDDEEALRLLAELTKFVFRLGDPELTRLVLELAELLKRLSSSS"}, "B4": {"name": "il10ra_site1_sap_16_mot_HHH_b2_07144_000000289_0001_1_18_H_._HHH_b2_05024_0001_0000200022_0000002_1_0001 (protein)", "chain": "SSSSTLEFSVEFVIRAAELLLEAGNPERARYLLRRAKEIFEEAGDEEAVELLEEALERVEGSSSS"}, "B5": {"name": "il10ra_site1_normal_mot_HHH_b2_03330_000000161_0001_1_19_H_._HHH_b1_05293_0001_0000700019_0000001_0 (protein)", "chain": "SSSSDEVFKEAWELFREVAELAEEGDEERIEELLREIEELYREVNDPTLKSILRAIRDLLESSSS"}, "B6": {"name": "il10ra_site1_sap_23_mot_HHH_b2_08186_000000021_0001_43_56_H_._HHH_b2_02878_af2_0002_0000400016_0000001_0_0001_af2pred_0001 (protein)", "chain": "SSSSEEAEELVKEVEEELRRLLEEGNFQEAFKALHRAIEELLRLGDPEAARRLSKLFYRLASSSS"}, "B7": {"name": "il10ra_site1_sap_12_mot_HHH_b2_02053_af2_000000006_0001_3_19_H_._30554b25d4cb88526b5de2d18227f4b9_0001_0001_0000100001_0000001_0_0001_af2pred_0001 (protein)", "chain": "SSSSSLLERTIQAIRYAIEQGNLERAKLTIRLAKRDAEFLNDEEAAEELKELEEEVRELLSSSSS"}, "B8": {"name": "il10ra_site1_sap_31_mot_HHH_b2_03708_000000000_0001_1_18_H_._HHH_b2_06184_af2_0001_0000100003_0000002_0_0001 (protein)", "chain": "KEEARDEASHLMIRAYALAHESDPEARREAEELIEEAKELAEEANDPRVEEIVRIAEEVIKEACS"}, "B9": {"name": "il10ra_site1_sap_20_mot_HHH_b2_00066_000000124_0001_1_17_H_._HHH_b1_03869_0001_0000200027_0000001_0_0001 (protein)", "chain": "SSSSSEDEEEVERLLEEVEELARQGDPEEANELAAEALRIAYENKNPELLRLIWEVFQRVGSSSS"}, "B10": {"name": "il10ra_site1_normal_mot_65b8060e20531850bca9f2e11f97d954_0001_af2_000000137_0001_17_31_H_._HHH_b1_08154_0001_0000100009_0000001_0_af2pred_0001 (protein)", "chain": "SSSSDEHQRASELAVKAAELIKEGDEEKAREVIEELEEIVEKIGDEKLKKSVRALKASLRSSSSS"}}, "note": "Some of the results follow.", "data": [{"target": "il10ra, Q13651", "assay": "yeast display titration", "values": [{"binder": "B1", "apparent Kd": "inactive: no binding seen"}, {"binder": "B2", "apparent Kd": "inactive: no binding seen"}, {"binder": "B3", "apparent Kd": "inactive: no binding seen"}, {"binder": "B4", "apparent Kd": "inactive: no binding seen"}, {"binder": "B5", "apparent Kd": "inactive: no binding seen"}, {"binder": "B6", "apparent Kd": "inactive: no binding seen"}, {"binder": "B7", "apparent Kd": "inactive: no binding seen"}, {"binder": "B8", "apparent Kd": "inactive: no binding seen"}, {"binder": "B9", "apparent Kd": "inactive: no binding seen"}, {"binder": "B10", "apparent Kd": "inactive: no binding seen"}]}]}
